# This is one part of the list.
# Target: T1, OsSMF1 (Oryza sativa, UniProt Q6ZLB0 1-436)
# T1 sequence: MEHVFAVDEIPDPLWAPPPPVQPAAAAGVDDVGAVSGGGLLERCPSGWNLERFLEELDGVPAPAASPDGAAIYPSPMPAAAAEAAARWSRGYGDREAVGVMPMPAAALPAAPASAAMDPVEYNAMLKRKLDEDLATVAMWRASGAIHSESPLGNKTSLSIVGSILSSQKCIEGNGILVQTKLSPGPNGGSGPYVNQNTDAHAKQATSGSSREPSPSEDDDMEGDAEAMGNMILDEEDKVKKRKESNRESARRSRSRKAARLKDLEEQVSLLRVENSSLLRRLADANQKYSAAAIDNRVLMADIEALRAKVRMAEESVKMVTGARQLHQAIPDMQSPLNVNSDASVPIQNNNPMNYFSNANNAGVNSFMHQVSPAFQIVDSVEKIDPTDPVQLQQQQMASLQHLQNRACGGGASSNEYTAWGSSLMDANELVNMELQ
# Assay: protein-binding microarray (RPBM); PBS, 2% BSA, 51.3 ng/ul salmon testes DNA, 50 uM zinc acetate, 200 nM TF, 25 C, 1 h; high values mean tight binding
# Settings: protein: recombinant; tags: N-terminal polyhistidine and DsRed monomer fusion (pET32a); chain copies: 2; label: CyDye5-dUTP incorporated in the synthesized complementary strand; 3' TTTTT single-stranded linker to array surface; dsDNA, one strand shown
# Method in brief: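 The binding signal is fluorescence intensity per array feature (arbitrary units). Readings came from an Axon 4000B scanner after a washed, 2% BSA-blocked, double-stranded custom Agilent array had been incubated for 1 h at 25 °C with 200 nM protein and 50 µM zinc acetate. The protein was a Ni–NTA-purified transcription factor fused N-terminally to polyhistidine and DsRed, expressed in E. coli BL21-CodonPlus.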
row,Sequence,binding signal
1,ATCATTACCTTATGTCTCTAACTCTATGCTTACGTGCTTACGGAGTCACCTAGTGCAG,3910 fluorescence intensity (a.u.)
2,GACTTAACGCCGTACGCAGCGGAGGATGGGTGGGTGGGCTCGGAGTCACCTAGTGCAG,4040 fluorescence intensity (a.u.)
3,CGCAGGGGTGTGTGTCACACTGTCACCTTTGGCGTGACGGCGGAGTCACCTAGTGCAG,4620 fluorescence intensity (a.u.)
4,GATGGCTACCTAGCTGACACGCAACGCCGGCCTCCGGATCCGGAGTCACCTAGTGCAG,3570 fluorescence intensity (a.u.)
5,CGCTCAGATCCAACGCACCACGTCGCTCCCACCTCCCTTCCGGAGTCACCTAGTGCAG,6050 fluorescence intensity (a.u.)
6,AATAATGCAACCTTTGCACGTAAGCAACTACTCCCTCCGTCGGAGTCACCTAGTGCAG,4610 fluorescence intensity (a.u.)
7,AGCATAAAATGTAGGTGAGTCAATTGCGTGTGGCCTTCAACGGAGTCACCTAGTGCAG,6740 fluorescence intensity (a.u.)
8,GAAGCCCTCCACATCGATCGCATCCATCATCCTCATCGTCCGGAGTCACCTAGTGCAG,4630 fluorescence intensity (a.u.)
9,ACATGAGATTTTGAGTGGATGTGATACATCTTAGGACAATCGGAGTCACCTAGTGCAG,3230 fluorescence intensity (a.u.)
10,TGTGCGGGGCCCACCCGGTGACGAGCCTCTCTCTTCCCCTCGGAGTCACCTAGTGCAG,3840 fluorescence intensity (a.u.)
11,TGCCATGTAAGCGCCACGTCAATGCCACATGGGACGGAGACGGAGTCACCTAGTGCAG,10300 fluorescence intensity (a.u.)
12,CCACTTGGCGCGGGAACCCGCTCGAGCGGTCGAGCCGGACCGGAGTCACCTAGTGCAG,3420 fluorescence intensity (a.u.)
13,ACCGGCCCACAACGACCCAGACACTCTCGCCGTCGCCGCCCGGAGTCACCTAGTGCAG,3140 fluorescence intensity (a.u.)
14,CAGAAAAGCAGTTGTGTTTGTCATTGATACAAGTGGAAGCCGGAGTCACCTAGTGCAG,3630 fluorescence intensity (a.u.)
15,TTTTACATGATTGGATGACAAAGCCTATTTCGTTTTGTTGCGGAGTCACCTAGTGCAG,5400 fluorescence intensity (a.u.)
16,GTGGGGCCCACGTCGTCGCCGTGGCAGCTAAACACAACTCCGGAGTCACCTAGTGCAG,5540 fluorescence intensity (a.u.)
17,GATCCAACACGTGTCCCCTACCCACGACACGTGGCAACCCCGGAGTCACCTAGTGCAG,36500 fluorescence intensity (a.u.)
18,ATTTTCAACCCCGTCACATGTGACTAGTTATCGGATCGCACGGAGTCACCTAGTGCAG,4260 fluorescence intensity (a.u.)
19,GAGAAAGCACACGACCTCCACGATGGAGATGGAGGCACAACGGAGTCACCTAGTGCAG,3510 fluorescence intensity (a.u.)
20,TGCTGATCCATTATTGCTATGCTTGATGCGCATGGGTTGGCGGAGTCACCTAGTGCAG,3340 fluorescence intensity (a.u.)
21,ACTGATCACCATCGGTCCCAGTCCCAGTCCAACACTTCCACGGAGTCACCTAGTGCAG,36900 fluorescence intensity (a.u.)
22,GTGCCGGGCCGGCACGGCTACTGTAGTGGCACGTGGGCTGCGGAGTCACCTAGTGCAG,6010 fluorescence intensity (a.u.)
23,TCGACCTGCCGCGCTGGAGACCGCGGCGTTCATTGGGCTGCGGAGTCACCTAGTGCAG,18000 fluorescence intensity (a.u.)
24,GGATGGACGCGGAATGCCACCGTAGAACGACGTGACACTGCGGAGTCACCTAGTGCAG,4930 fluorescence intensity (a.u.)
25,ACGCTATCCCGCCGCCGCCGCGTGTCTCCCCAATCCCAATCGGAGTCACCTAGTGCAG,4980 fluorescence intensity (a.u.)
26,AACACAGGTGGGGACATCGTATGGTGACAATGAGTCAATGCGGAGTCACCTAGTGCAG,3230 fluorescence intensity (a.u.)
27,AATACAACAAGTTTAGACATACATCTGTCCAGATTCGTTGCGGAGTCACCTAGTGCAG,3490 fluorescence intensity (a.u.)

row,Sequence,binding signal
1,GGCCTAAACTGGTGTCTGGTGTGGCCCATTAACACTTCAGCGGAGTCACCTAGTGCAG,3740 fluorescence intensity (a.u.)
2,TTCCTCTAATTAACGTGTCAGCGGTCTAGGTCACGTAAGACGGAGTCACCTAGTGCAG,4430 fluorescence intensity (a.u.)
3,GCTTTGCCGTGACGCGTCTCATGTGTTGGGACGAGGCTCACGGAGTCACCTAGTGCAG,6790 fluorescence intensity (a.u.)
4,CAGATTCTGTCCGTGGTTTGGTGAGCTGGACAGCCGTCCACGGAGTCACCTAGTGCAG,3190 fluorescence intensity (a.u.)
5,ACAGTCTCCTCTACAAGATACTGAGAACTGCTTCAGTGAGCGGAGTCACCTAGTGCAG,19800 fluorescence intensity (a.u.)
6,TGGGGATGAGACTGAGTGAGGTGGACAGATAAGCTGGGGCCGGAGTCACCTAGTGCAG,6020 fluorescence intensity (a.u.)
7,ATGACTACTCCTACTCCTAGTAGACGCATCGCTTTCCAATCGGAGTCACCTAGTGCAG,3960 fluorescence intensity (a.u.)
8,AGCGCCTTTAATACCGTCGTCACCGATCGGCTTCCGTTTTCGGAGTCACCTAGTGCAG,5030 fluorescence intensity (a.u.)
9,GGCTGCCACGTAACAGTCGGGTTATAGAACTAGTTCTTTGCGGAGTCACCTAGTGCAG,6970 fluorescence intensity (a.u.)
10,AAATCTGTATTAAGATGACACATTGCATCAATGTACAAATCGGAGTCACCTAGTGCAG,4100 fluorescence intensity (a.u.)
11,AATTAGATGTGTCACTCGTCTTCACTATAAAACTTGCCGTCGGAGTCACCTAGTGCAG,5610 fluorescence intensity (a.u.)
12,CATTGCAGAGCGGCCTTTCACGTGGCCTTCTTTCTGCCCTCGGAGTCACCTAGTGCAG,3710 fluorescence intensity (a.u.)
13,ATAAACCAACGAACGGAGCGGGTCCCATTTACCCAAAAGCCGGAGTCACCTAGTGCAG,15300 fluorescence intensity (a.u.)
14,CGGTGCTCCCATGGTGGCGCAGCGCCACGCTTGTGGGTTGCGGAGTCACCTAGTGCAG,3840 fluorescence intensity (a.u.)
15,TCGAAAACTTTTCAGCCACGTGATGTTGGCAATCGCTGTTCGGAGTCACCTAGTGCAG,7190 fluorescence intensity (a.u.)
16,CTTCCATTCTTTCTAGTGCACTGTCTCAGTCAGGCATTATCGGAGTCACCTAGTGCAG,3370 fluorescence intensity (a.u.)
17,GTTGACTGTGATCCGAGTATCTGACGTGTGTCCGTTGCATCGGAGTCACCTAGTGCAG,17300 fluorescence intensity (a.u.)
18,TCGAGCTTGGCTGGATGCTATCGTCAGTTGGTCTCCTTACCGGAGTCACCTAGTGCAG,3950 fluorescence intensity (a.u.)
19,CCCGATATTGACCGCACGCCGCCACGACAAATCTGCTCGGCGGAGTCACCTAGTGCAG,4820 fluorescence intensity (a.u.)
20,AAGTTAAGATGCTAGATATCATTCGTCAGCAAGCTAGAAGCGGAGTCACCTAGTGCAG,4880 fluorescence intensity (a.u.)
21,CGGAACGGCGGTGACGCCAGTGATCCCCTCGTCCCGAATACGGAGTCACCTAGTGCAG,4180 fluorescence intensity (a.u.)
22,TCGAAGCCCTCAAGACAGCCACGCACGCGGCCCGCGCCGCCGGAGTCACCTAGTGCAG,5660 fluorescence intensity (a.u.)
23,ATATATGACGCCATTAACTTTTCAAGATACATTTGATCATCGGAGTCACCTAGTGCAG,3610 fluorescence intensity (a.u.)
24,CCAACCCACCCGAAAGAAGCAGCCCACATCAACCTATTTTCGGAGTCACCTAGTGCAG,3440 fluorescence intensity (a.u.)
25,TGCAAGAACAAGCTGGATTTTGGCAAAGAATTTGTATGCTCGGAGTCACCTAGTGCAG,13900 fluorescence intensity (a.u.)
26,TACTTAACTACGTACGTAATCACGCCCAGTACCTTGTGGACGGAGTCACCTAGTGCAG,4140 fluorescence intensity (a.u.)
27,TGCGGGAACGACGCCACCGGGATGGCGTCGAAGCAGCTGTCGGAGTCACCTAGTGCAG,7720 fluorescence intensity (a.u.)

# Look-ups from the entries so far:
# In binding signal, GGCCTAAACTGGTGTCTGGTGTGGCCCATTAACACTTCAGCGGAGTCACCTAGTGCAG shows 3740 fluorescence intensity (a.u.)
# In binding signal, CGGTGCTCCCATGGTGGCGCAGCGCCACGCTTGTGGGTTGCGGAGTCACCTAGTGCAG shows 3840 fluorescence intensity (a.u.)

# Given bar-delimited: part of the list above.
row | Sequence | binding signal
12 | CCACTTGGCGCGGGAACCCGCTCGAGCGGTCGAGCCGGACCGGAGTCACCTAGTGCAG | 3420 fluorescence intensity (a.u.)
22 | GTGCCGGGCCGGCACGGCTACTGTAGTGGCACGTGGGCTGCGGAGTCACCTAGTGCAG | 6010 fluorescence intensity (a.u.)

# From paper PMC7819943, “Rice protein-binding microarrays: a tool to detect cis-acting elements near promoter regions in rice”
